The target of assay [1] is rhDLL4(重组人DLL4) (human) (UniProt Q9NR61). Description: summary of results (SPR / cell assays).
For assay [2] the target is unchanged. As to the kind of experiment: SPR, Biacore X100, rhDLL4 immobilised on CM5 chip.

Protein sequences, listed by entry. Tags and fused reporters are not part of them. Residues count along the entry.
UniProt Q9NR61, residues 27-524: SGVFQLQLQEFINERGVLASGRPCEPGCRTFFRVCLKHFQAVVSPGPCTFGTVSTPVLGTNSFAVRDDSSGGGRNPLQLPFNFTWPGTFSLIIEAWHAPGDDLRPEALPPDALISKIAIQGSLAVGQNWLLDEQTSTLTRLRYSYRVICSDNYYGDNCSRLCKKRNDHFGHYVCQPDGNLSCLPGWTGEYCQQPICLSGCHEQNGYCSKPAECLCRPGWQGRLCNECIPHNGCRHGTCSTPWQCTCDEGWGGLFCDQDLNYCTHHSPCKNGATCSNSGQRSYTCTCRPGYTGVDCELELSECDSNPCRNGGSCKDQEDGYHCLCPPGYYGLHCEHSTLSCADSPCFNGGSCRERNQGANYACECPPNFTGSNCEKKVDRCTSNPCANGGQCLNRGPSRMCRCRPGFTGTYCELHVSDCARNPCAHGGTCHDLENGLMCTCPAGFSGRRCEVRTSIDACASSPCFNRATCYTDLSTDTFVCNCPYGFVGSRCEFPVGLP

These are yes or no findings as the source states them, for the method shown. Some binding calls cover weakened binding; strength is not graded here.

B1: 抗人DLL4人源化抗体H3L2 (antibody, human IgG1, lambda, V domains shown)
VH: QVQLVQSGAEVKKPGSSVKVSCKASGYTFSGYWMQWIKQAPGQGLEWIGAIYPGDGDTRYTQKFKGRATLTADKSTSTAYMELSSLRSEDTAVYYCAGGNFFFDYWGQGTLVTVSS
VL: EIVITQSPDFQSVTPKEKVTITCSVSSSISSSYLHWYQQKPDQSPKPWIYGTSNLASGVPSRFSGSGSGTDYTLTINSLEAEDAATYYCQQWSSSPLTFGQGTKLEIKV
As to B1, the binding result with rhDLL4(重组人DLL4) (human) [1] and in the assay with rhDLL4(重组人DLL4) (human) [2] was “binds” in each case.
